Reference: US12336986B2, “Treatment and prevention of ocular neurodegenerative disorder” (The Jackson Laboratory, priority 2015, dated 2025)
“Also recorded” adds a separate entry of the source. At least one compound was matched to its structure with a doubt left.

Legend:
[1] = system: retinal ganglion cell axons; type: in vivo, mouse; conditions: D2 mice; NAM 550 mg/kg/day or pyruvate 500 mg/kg/day
[2] = system: DBA/2J (D2) mice; assay: Optic nerve assessment (PPD staining) and determination of glaucomatous damage in D2 mice; type: in vivo, mouse; conditions: 12 months, NAM 550 mg/kg/day (early start 6 months or late start 9 months) or pyruvate 500 mg/kg/day in drinking water

## CC(=O)C(=O)O [pyruvate]
[1]
  anterograde axoplasmic transport (Ct-B): protects; also recorded: prevent axonal transport loss
[2]
  optic nerve degeneration / glaucoma (NOE, MOD, SEV): resistant; also recorded: protects
